From patent publication US20220175920A1
Results are given in words; binding and its absence hold for the method and conditions named. Some entries that bind do so weakly or less than the wild type.

Chains of the proteins cited; added tags and fusions are not shown. Lines headed by an entry give the natural chain unless they say otherwise; changes in a name come on top.
UniProt P25942: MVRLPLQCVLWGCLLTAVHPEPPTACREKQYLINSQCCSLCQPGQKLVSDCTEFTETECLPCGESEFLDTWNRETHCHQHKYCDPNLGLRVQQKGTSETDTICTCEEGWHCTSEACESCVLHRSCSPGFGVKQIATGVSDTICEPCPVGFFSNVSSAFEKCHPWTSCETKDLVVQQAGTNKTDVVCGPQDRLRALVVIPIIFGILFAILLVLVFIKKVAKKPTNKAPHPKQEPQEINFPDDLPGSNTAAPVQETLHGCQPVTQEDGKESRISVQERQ

How the values were obtained:
[1] = target: CD40 E28A FAS (mutated CD40 ectodomain fused to FAS) on CHO cells (human); test: flow cytometry on CHO cells expressing CD40 E28A FAS (FIG. 19)
[2] = target: CD40 R27A FAS (mutated CD40 ectodomain fused to FAS) on CHO cells (human); test: flow cytometry on CHO cells expressing CD40 R27A FAS (FIG. 19)
[3] = target: human CD40 ectodomain fused to FAS transmembrane and intracellular domains, on CHO cells (human); test: flow cytometry, stably transfected CHO cells, 1 h on ice, goat anti-human IgG-PE, % of events in gate P1 [panel WT CD40-FAS CHO]
[4] = target: human CD40 on cells (B cells, MDDCs, stably transfected CHO cells) (human) (UniProt P25942); test: flow cytometry, stably transfected CHO cells, 1 h on ice, goat anti-human IgG-PE, % of events in gate P1 [panel CD40 CHO]
[5] = target: CD40 R27A FAS (mutated CD40 ectodomain fused to FAS) on CHO cells (human); test: flow cytometry, stably transfected CHO cells, 1 h on ice, goat anti-human IgG-PE, % of events in gate P1 [panel CD40 R27A FAS CHO]
[6] = target: CD40 E28A FAS (mutated CD40 ectodomain fused to FAS) on CHO cells (human); test: flow cytometry, stably transfected CHO cells, 1 h on ice, goat anti-human IgG-PE, % of events in gate P1 [panel CD40 E28A FAS CHO]

Measured: binding

B1: anti-CD40 11B6 human IgG4 antibody (antibody, V domains shown)
VH: EVQLVQSGAEVKKPGASVKISCKASGYSFTGYYMHWVKQAHGQGLEWIGRINPYNGATSYNQNFKDRATLTVDKSTSTAYMELSSLRSEDTAVYYCAREDYVYWGQGTTVTVSS
VL: DVVMTQSPLSLPVTLGQPASISCRSSQSLVHSNGNTYLHWYQQRPGQSPRLLIYKVSNRFSGVPDRFSGSGSGTDFTLKISRVEAEDVGVYFCSQSTHVPWTFGGGTKLEIKR
binds: all assays above

B2: anti-CD40 12E12 human IgG4 antibody (antibody, V domains shown)
VH: EVQLVESGGGLVQPGGSLKLSCATSGFTFSDYYMYWVRQAPGKGLEWVAYINSGGGSTYYPDTVKGRFTISRDNAKNTLYLQMNSLRAEDTAVYYCARRGLPFHAMDYWGQGTLVTVSS
VL: DIQMTQSPSSLSASVGDRVTITCSASQGISNYLNWYQQKPGKAVKLLIYYTSILHSGVPSRFSGSGSGTDYTLTISSLQPEDFATYYCQQFNKLPPTFGGGTK
not listed: [4]
binds: all other assays above
